Some of the results follow.
The sequences below were run against T1, OsSMF1 (Oryza sativa, UniProt Q6ZLB0 1-436) (assay: protein-binding microarray (RPBM); PBS, 2% BSA, 51.3 ng/ul salmon testes DNA, 50 uM zinc acetate, 200 nM TF, 25 C, 1 h; high values mean tight binding). Conditions: protein: recombinant; tags: N-terminal polyhistidine and DsRed monomer fusion (pET32a); chain copies: 2; label: CyDye5-dUTP incorporated in the synthesized complementary strand; 3' TTTTT single-stranded linker to array surface; dsDNA, one strand shown.
T1 sequence: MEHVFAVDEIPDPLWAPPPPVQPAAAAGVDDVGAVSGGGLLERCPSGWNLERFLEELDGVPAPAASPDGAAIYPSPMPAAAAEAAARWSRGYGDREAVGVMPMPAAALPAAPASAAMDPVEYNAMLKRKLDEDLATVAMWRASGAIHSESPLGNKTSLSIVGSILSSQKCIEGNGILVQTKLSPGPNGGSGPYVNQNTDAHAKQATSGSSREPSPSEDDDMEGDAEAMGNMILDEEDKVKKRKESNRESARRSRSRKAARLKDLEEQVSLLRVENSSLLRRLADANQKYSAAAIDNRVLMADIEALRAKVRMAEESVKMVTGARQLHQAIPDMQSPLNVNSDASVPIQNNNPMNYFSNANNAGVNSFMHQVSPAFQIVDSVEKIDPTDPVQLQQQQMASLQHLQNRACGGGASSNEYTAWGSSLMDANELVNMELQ
Method in brief: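 Polyhistidine-tagged DsRed fusions of transcription factors, joined at the N-terminus, were expressed in E. coli BL21-CodonPlus and isolated on Ni–NTA. They were incubated at 200 nM for 1 h at 25 °C on a custom Agilent array, double-stranded and BSA-blocked, in PBS with 2% BSA, salmon testes DNA and 50 µM zinc acetate. The binding signal is per-feature fluorescence intensity (arbitrary units) read on an Axon 4000B scanner after washing.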
With “TCTACTAGCTTAAAAGCCAACTCATCTTCCTTCCGTCCACCGGAGTCACCTAGTGCAG” the binding signal was 4720 fluorescence intensity (a.u.).
With “GCTCGGCCGGTTGCGGCGAGTTTGCACCACGACGGTGGGTCGGAGTCACCTAGTGCAG” the binding signal was 3270 fluorescence intensity (a.u.).
With “GATCCTATAAAATTCCTGTGAAATGCCTCATTCAATAAAACGGAGTCACCTAGTGCAG” the binding signal was 26700 fluorescence intensity (a.u.).
For “AGGGGTTGGTCTTGCCTACTACAAATCCTCCTCCACGTCACGGAGTCACCTAGTGCAG”, the binding signal was 11900 fluorescence intensity (a.u.).
With “ATGATAACTCCGTTAGTTTTAAAAGGTAGAGATAATTTACCGGAGTCACCTAGTGCAG” the binding signal was 3280 fluorescence intensity (a.u.).
With “GGGCCGAACATAGGGTGGGTGCAGATGATGTCGAACTCCTCGGAGTCACCTAGTGCAG” the binding signal was 3640 fluorescence intensity (a.u.).
With “ATCTTCGCTGCCGCCAACGGAGGCGCCTTAGGCAGCGAGCCGGAGTCACCTAGTGCAG” the binding signal was 5750 fluorescence intensity (a.u.).
With “CCTTTAATCCCTTTAGTTTGTTTGTATTACGTGGCTAGCACGGAGTCACCTAGTGCAG” the binding signal was 8290 fluorescence intensity (a.u.).
With “GATCGACTACGACGATGCCTTCGCTCCCGTGGCACGGATGCGGAGTCACCTAGTGCAG” the binding signal was 4150 fluorescence intensity (a.u.).
With “CCCAGGGAGGCCAAACTACAAAGGCGATGCTTTCTACACACGGAGTCACCTAGTGCAG” the binding signal was 41500 fluorescence intensity (a.u.).
With “ACACCCAGCTACAACTAATTTAAGCAAGAGTGAGGAGACTCGGAGTCACCTAGTGCAG” the binding signal was 5250 fluorescence intensity (a.u.).
With “GGCCCGCGGAGCCAGGCTGAGGGGAAACGCTCGAATCGACCGGAGTCACCTAGTGCAG” the binding signal was 27600 fluorescence intensity (a.u.).
With “ATGGGCTGATGCCCTTACGTGGGCCCACCACCCACCCCTGCGGAGTCACCTAGTGCAG” the binding signal was 3770 fluorescence intensity (a.u.).
With “TTGAACTTTGCATCCATGGAGACAGTAATACTCTCTGGCCCGGAGTCACCTAGTGCAG” the binding signal was 3720 fluorescence intensity (a.u.).
For “GAGCGTAGACATTACACGCACGCACCTAAGGCGGAGATCTCGGAGTCACCTAGTGCAG”, the binding signal was 3580 fluorescence intensity (a.u.).
With “AGAAGGCTCGCCTACCGCAACCTCGAGAAGATGATCGACGCGGAGTCACCTAGTGCAG” the binding signal was 3400 fluorescence intensity (a.u.).
In the case of “TACGATGAGTCATTTATTGATTATTGTATTAATGTTCCTTCGGAGTCACCTAGTGCAG”, the binding signal is reported as 11500 fluorescence intensity (a.u.).
With “TGATTATACGTCAGCCGAATATGCATATACTTTGAGTTTTCGGAGTCACCTAGTGCAG” the binding signal was 6760 fluorescence intensity (a.u.).
With “GTCGTCGCGCTACTTCCCGGCGGCGTCGTGGGGCGGGCTGCGGAGTCACCTAGTGCAG” the binding signal was 4250 fluorescence intensity (a.u.).
“GACACCGATGAAATCTCATGCTCCTCTGCCTGCCATGTGTCGGAGTCACCTAGTGCAG” was tested, and the binding signal was 3820 fluorescence intensity (a.u.).
For “ACAATGTTCCGGGTCTTATATTGCCAAATCAGTGACGTACCGGAGTCACCTAGTGCAG”, the binding signal was 59800 fluorescence intensity (a.u.).
With “GCGGCCACCCGCCTCGCCATCGCCAACCTCTCCACGCGTCCGGAGTCACCTAGTGCAG” the binding signal was 3340 fluorescence intensity (a.u.).
For “CCTTGAGATCAGTCAGCACCACAGTGCCACTGCCACCCACCGGAGTCACCTAGTGCAG”, the binding signal was 4370 fluorescence intensity (a.u.).
In the case of “TCTCCACCTAACGGCAGGCTCATGACTCATCATGGGCGCACGGAGTCACCTAGTGCAG”, the binding signal is reported as 15800 fluorescence intensity (a.u.).
In the case of “GATCAAAAGCAAGATGATGCGGATGGCACGTCACGATTGTCGGAGTCACCTAGTGCAG”, the binding signal is reported as 10900 fluorescence intensity (a.u.).
With “ACCTATATGATTCATCCTCACTTAGTATTATTTCTCTCTTCGGAGTCACCTAGTGCAG” the binding signal was 3400 fluorescence intensity (a.u.).
“GGACTCCACCTCCTGGTGCACGCCTACGCGCGCGCGCGCCCGGAGTCACCTAGTGCAG” was tested, and the binding signal was 20100 fluorescence intensity (a.u.).
In the case of “AAAGTCCACATATCTCACTATTTGAGGAACCCACATGGCACGGAGTCACCTAGTGCAG”, the binding signal is reported as 3860 fluorescence intensity (a.u.).
With “CTGATCAGTGCACGTCTGACGTCTCGTTTATTGAACAGCTCGGAGTCACCTAGTGCAG” the binding signal was 4390 fluorescence intensity (a.u.).
In the case of “TGGCGTACGGCGGTAGCCGGCGCGGTAGAACCGATCGATCCGGAGTCACCTAGTGCAG”, the binding signal is reported as 13300 fluorescence intensity (a.u.).
“TAAAGGATCAGTTATCTTCAATGATGACATCAATGGTGGGCGGAGTCACCTAGTGCAG” was tested, and the binding signal was 4220 fluorescence intensity (a.u.).
With “CACAGAGGAACCGAGCTACACATGCGTGGCAGACATGGGACGGAGTCACCTAGTGCAG” the binding signal was 3350 fluorescence intensity (a.u.).
“GCCGGTCGAACCGCCCGAACACCTACGGTCAGACCGCTGCCGGAGTCACCTAGTGCAG” was tested, and the binding signal was 3360 fluorescence intensity (a.u.).
With “GACCCCTCCCCGCCGATTCCTCCCTCCTCCACGCGCGCGCCGGAGTCACCTAGTGCAG” the binding signal was 3590 fluorescence intensity (a.u.).
In the case of “TTCTTTTGTTGTGTGGGTGTATGTTTTGGTTATGTGCATTCGGAGTCACCTAGTGCAG”, the binding signal is reported as 4110 fluorescence intensity (a.u.).
In the case of “GAAGGGTATTAATCGGGCATATCTTGTTAGTATTCATTCCCGGAGTCACCTAGTGCAG”, the binding signal is reported as 3470 fluorescence intensity (a.u.).
For “ACGGCCCATACAACCACCCTCCCCAAAACCCCAGCCCAAGCGGAGTCACCTAGTGCAG”, the binding signal was 22200 fluorescence intensity (a.u.).
In the case of “CCACATGCCGTCGTCGCCGTTCCAGTGCTTTCTGTCACCACGGAGTCACCTAGTGCAG”, the binding signal is reported as 3850 fluorescence intensity (a.u.).
In the case of “TTTCAATAGAGTAATGACTCAGTAGGCCTCACTGATTAGTCGGAGTCACCTAGTGCAG”, the binding signal is reported as 8340 fluorescence intensity (a.u.).
For “TCCAGTTTGACAGTTACAGTACAGATCGACGTGTAGAATACGGAGTCACCTAGTGCAG”, the binding signal was 4340 fluorescence intensity (a.u.).
With “TAGTAGTACTATGTAACCGGTACAGTCACCAAAACAGGGTCGGAGTCACCTAGTGCAG” the binding signal was 5260 fluorescence intensity (a.u.).
With “TTGAAAGGGGAGATTTGCAATAATGACGCTGCAAACATTACGGAGTCACCTAGTGCAG” the binding signal was 4000 fluorescence intensity (a.u.).
